Data published in the supplement of paper PMC3047530.
The other results are listed elsewhere or left out. Many values rest on one well or one pass, so single values are uncertain.

The compounds below were run on Geomyces destructans (assay: growth inhibition relative to DMSO control; higher = stronger growth inhibition). Conditions: 10 µM; 15 °C; incubation time 10 days.

| Structure (SMILES) | growth inhibition |
| --- | --- |
| OCc1ccccc1O[C@@H]1O[C@H](CO)[C@@H](O)[C@H](O)[C@H]1O | -12.3% |
| C=CC1=C(C(=O)O)N2C(=O)[C@@H](NC(=O)/C(=N\O)c3csc(N)n3)[C@H]2SC1 | -26.4% |
| Nc1cc(N2CCCCC2)nc(N)[n+]1[O-] | -10% |
| CC(=O)OC1CC[C@@]2(C)C(CC[C@]3(C)C2CCC2C4CC(C)(C)CCC4(C(=O)O)CC[C@]23C)C1(C)C (some centres undefined) | 5.11% |
| CC1=C(/C=C/C(C)=C/C=C/C(C)=C/CO)C(C)(C)CCC1 | -6.7% |
| O=C(O)c1ccccc1OP(=O)(O)O | -3.94% |
| COC(=O)c1c(C)cc(OC(=O)c2c(C)cc(O)c(C=O)c2O)c(C)c1O | -4.31% |
| C/C=C(/C(=C/C)c1ccc(O)cc1)c1ccc(O)cc1 | -5.77% |
| COc1ccc([C@@H](C)C(=O)c2ccc(O)cc2O)cc1 | -7.91% |
| CC1(C)OC(=O)C=CC2(C)C1CC(O)C1(C)C2CCC2(C)C(c3ccoc3)OC(=O)C3OC321 (centres undefined) | -18% |
| NC(Cc1cc(I)c(Oc2ccc(O)c(I)c2)c(I)c1)C(=O)O (centres undefined) | -10.5% |
| O=c1n(CCCN2CCN(c3cccc(Cl)c3)CC2)nc2ccccn12 | -6.77% |
| CC(=O)NCCCCCC(=O)O | -4.73% |
| CC1/C(=N/O)C[C@@H]2C[C@H]1C2(C)C (some centres undefined) | -5.08% |
| CC1(C)S[C@@H]2[C@H](NC(=O)[C@H](N)c3ccccc3)C(=O)N2[C@H]1C(=O)O | -36.8% |
| C=C[C@H]1CN2CC[C@H]1C[C@H]2[C@H](O)c1ccnc2ccc(OC)cc12 | -21.5% |
| O=C(/C=C/c1ccccc1)c1ccc(O[C@@H]2O[C@H](CO)[C@@H](O)[C@H](O)[C@H]2O)cc1O | 1.36% |
| CCCn1c(=O)c2[nH]c(C3CCCC3)nc2n(CCC)c1=O | 8.2% |
| Cc1nc2ccccn2c(=O)c1CCN1CCC(C(=O)c2ccc(F)cc2)CC1 | -33.5% |
| O=c1c(-c2ccccc2)coc2cc(O)cc(O)c12 | 8.73% |
| NC(=O)c1cnccn1 | -28.8% |
| CC(=O)O[C@H]1C(=O)[C@@]2(C)[C@H]([C@H](OC(=O)c3ccccc3)[C@]3(O)C[C@H](OC(=O)[C@H](O)[C@@H](NC(=O)c4ccccc4)c4ccccc4)C(C)=C1C3(C)C)[C@]1(OC(C)=O)CO[C@@H]1C[C@@H]2O | -8.86% |
| COc1ccc2c(c1)CC[C@@H]1[C@@H]2CC[C@]2(C)[C@@H](O)CC[C@@H]12 | -14.8% |
| COc1cc2c(cc1OC)[C@@H]1C(=O)c3c(O)cc4c(c3O[C@@H]1CO2)C=CC(C)(C)O4 [alpha-TOXICAROL] | 5.82% |
| O[C@H]1[C@H](O)[C@@H](O)[C@H](O)[C@@H](O)[C@H]1O | -24.5% |

Look-ups from the entries so far:
growth inhibition with O=c1c(-c2ccccc2)coc2cc(O)cc(O)c12 is entered as 8.73%
growth inhibition with COc1ccc([C@@H](C)C(=O)c2ccc(O)cc2O)cc1 is entered as -7.91%

(continued)

| Structure (SMILES) | growth inhibition |
| --- | --- |
| CCN1CCN(C(=O)NC(C(=O)NC2C(=O)N3C(C(=O)O)=C(CSc4nnnn4C)CSC23)c2ccc(O)cc2)C(=O)C1=O (centres undefined) | -3.94% |
| C/C=C/c1ccc(OC)cc1 | -3.77% |
| C=C(C)[C@@H]1CC[C@]2(CO)CC[C@]3(C)[C@H](CC[C@@H]4[C@@]5(C)CC[C@H](O)C(C)(C)[C@@H]5CC[C@]43C)[C@@H]12 | 3.12% |
| C=C1CCC(C2CC(=O)OC2=O)C(=O)CCC2C1CC2(C)C (centres undefined) | -6.87% |
| O=C(O)c1cc(=O)c2c(Cl)cc(Cl)cc2[nH]1 | -1.58% |
| Oc1cccc(O)c1 | -20.5% |
| Cc1cc(O)cc(C)c1Cl | 0.363% |
| CC(N)CCCC(C)(C)O (centres undefined) | -7.24% |
| CC(C)OC(=O)C(C)(C)Oc1ccc(C(=O)c2ccc(Cl)cc2)cc1 | -28.9% |
| COc1ccccc1/C=C/C(=O)O | -0.393% |
| NC(=O)CC[C@H](N)C(=O)O | -2.89% |
| O=c1oc2cc(O)ccc2s1 | -0.218% |
| CC(=O)Oc1cc(-c2coc3cc(OC(C)=O)c(OC(C)=O)c(OC(C)=O)c3c2=O)cc(OC(C)=O)c1OC(C)=O | 2.6% |
| c1coc(CNc2ncnc3[nH]cnc23)c1 | -18.2% |
| O=C(O)c1cc(/N=N/c2ccc(S(=O)(=O)Nc3ccccn3)cc2)ccc1O | -4.54% |
| C[C@@H]1[C@H]2[C@H](O[C@@H]3O[C@H](CO)[C@@H](O)[C@H](O)[C@H]3O)OC=C(C(=O)O)[C@H]2C[C@@H]1O | -14.7% |
| CC(=O)O[C@@H]1C=C[C@]2(C)C(C[C@@H](OC(C)=O)[C@]3(C)C4=CC(=O)O[C@H](c5ccoc5)[C@@]4(C)CCC23)C1(C)C (some centres undefined) | -0.395% |
| O=C(O)c1cc2cc(Cc3cccnc3)ccc2o1 | 1.62% |
| N[C@@H](CSCSC[C@H](N)C(=O)O)C(=O)O | -1.57% |
| CN/C(=N\CCSCc1nc[nH]c1C)NC#N | 0.983% |
| Cc1cc(C(C)(C)C)c(O)c(C(C)(C)C)c1 | 3.82% |
| Cn1c(=O)[nH]c2ncn(C)c2c1=O | -26.4% |
| O=C(O)c1cn(C2CC2)c2cc(N3CCNCC3)c(F)cc2c1=O | -6.38% |
| CC1(C)C(O)CC(=O)C2(C)C1CC(O)C1(C)C2CCC2(C)C(c3ccoc3)OC(=O)C3OC321 (centres undefined) | -4.75% |
